Our source for the binding values is doi:10.1101/266833.

Where two headings read alike, the source gives them in different places. No constants are given. Whether binding was seen depends on the method and setting. In cells and extracts the contact can be indirect. These calls come from enrichment with a bait or labelling near it, and not all partners need be listed. For some assays here: No binding means not detected with the bait.

Assay in all cases: affinity purification with mass spectrometry
Test [1] concerns the target T1, Upf1-TAP (S. cerevisiae) (UniProt P30771).
T1 sequence: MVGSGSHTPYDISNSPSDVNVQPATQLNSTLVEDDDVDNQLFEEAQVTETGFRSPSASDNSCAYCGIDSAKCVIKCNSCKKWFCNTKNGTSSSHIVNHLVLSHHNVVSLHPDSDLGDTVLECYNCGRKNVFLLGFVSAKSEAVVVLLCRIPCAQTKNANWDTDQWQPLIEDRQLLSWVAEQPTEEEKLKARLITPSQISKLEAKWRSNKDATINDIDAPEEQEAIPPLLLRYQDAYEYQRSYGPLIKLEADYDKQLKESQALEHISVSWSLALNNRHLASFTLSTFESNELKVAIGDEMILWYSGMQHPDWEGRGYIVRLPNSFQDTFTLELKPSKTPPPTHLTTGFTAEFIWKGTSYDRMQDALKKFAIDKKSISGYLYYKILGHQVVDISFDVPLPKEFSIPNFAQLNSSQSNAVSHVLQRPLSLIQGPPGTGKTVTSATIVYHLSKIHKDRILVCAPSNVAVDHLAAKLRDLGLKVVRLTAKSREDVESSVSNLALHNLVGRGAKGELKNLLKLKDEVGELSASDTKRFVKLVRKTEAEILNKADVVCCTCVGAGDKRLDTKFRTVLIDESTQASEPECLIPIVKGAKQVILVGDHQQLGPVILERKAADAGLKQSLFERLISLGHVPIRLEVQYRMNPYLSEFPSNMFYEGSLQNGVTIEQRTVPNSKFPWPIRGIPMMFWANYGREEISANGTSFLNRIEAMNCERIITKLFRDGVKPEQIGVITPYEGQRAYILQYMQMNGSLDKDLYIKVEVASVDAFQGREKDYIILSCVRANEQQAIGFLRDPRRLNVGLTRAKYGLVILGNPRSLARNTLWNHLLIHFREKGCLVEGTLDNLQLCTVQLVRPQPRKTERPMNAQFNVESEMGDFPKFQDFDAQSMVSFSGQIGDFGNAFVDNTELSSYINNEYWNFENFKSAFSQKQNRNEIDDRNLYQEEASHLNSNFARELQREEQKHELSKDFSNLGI

Test [2] deals with T2, TAP-Upf1-HD-Cter (208-971) (S. cerevisiae) (UniProt P30771).
T2 sequence: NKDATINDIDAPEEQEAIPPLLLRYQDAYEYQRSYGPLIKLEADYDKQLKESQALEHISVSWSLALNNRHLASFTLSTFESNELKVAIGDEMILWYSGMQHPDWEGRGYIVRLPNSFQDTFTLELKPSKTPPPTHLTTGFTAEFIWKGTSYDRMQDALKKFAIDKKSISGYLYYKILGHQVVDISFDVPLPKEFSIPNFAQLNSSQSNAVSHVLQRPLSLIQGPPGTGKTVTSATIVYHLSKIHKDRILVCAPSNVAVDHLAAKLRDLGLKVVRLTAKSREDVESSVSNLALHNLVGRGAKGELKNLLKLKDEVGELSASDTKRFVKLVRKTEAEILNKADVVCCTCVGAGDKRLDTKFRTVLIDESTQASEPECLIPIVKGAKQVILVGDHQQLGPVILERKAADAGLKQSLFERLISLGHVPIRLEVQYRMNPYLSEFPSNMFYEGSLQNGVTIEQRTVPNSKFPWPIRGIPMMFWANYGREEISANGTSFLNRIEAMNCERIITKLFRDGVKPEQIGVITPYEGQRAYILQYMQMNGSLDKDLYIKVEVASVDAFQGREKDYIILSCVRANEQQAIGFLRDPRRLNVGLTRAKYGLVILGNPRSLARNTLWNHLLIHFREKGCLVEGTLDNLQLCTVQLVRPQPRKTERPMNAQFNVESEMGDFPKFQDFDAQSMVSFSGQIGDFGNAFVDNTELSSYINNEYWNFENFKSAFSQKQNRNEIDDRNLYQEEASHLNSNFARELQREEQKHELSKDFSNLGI

Test [3] addresses T3, TAP-Upf1-CH (2-208) (S. cerevisiae) (UniProt P30771).
T3 sequence: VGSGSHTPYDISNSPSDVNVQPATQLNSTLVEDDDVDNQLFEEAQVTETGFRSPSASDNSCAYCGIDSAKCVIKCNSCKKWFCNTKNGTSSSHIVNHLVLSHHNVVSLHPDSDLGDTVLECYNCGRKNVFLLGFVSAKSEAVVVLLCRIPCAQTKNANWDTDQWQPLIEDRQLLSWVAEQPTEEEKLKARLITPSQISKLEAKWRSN

For test [4], the target named is T1, Upf1-TAP (S. cerevisiae). The source holds these as a separate data set.

B1: Ebs1 (protein, UniProt Q03466 1-884)
chain: MEPSNTQKEDLPTAFNGIKSQLNSILKSNQLFQDYALLNGFLAFVHSKLNAAILTSIESQCGKSFAADLDSFDQSSISSILDFSWESVHYPIFKWFQMWRNYILFEKENKKQQTKFIDFRKMNSKMLKFFKTVQNFYVNVINTVYKKYDISVLLPKRIIQDLKLSDIENTTNVGDILAVKTFNSSSPLAHLIPTLFHRCLLFLGTAYRYKTLLEEISNKYSISNFKKSLDFFRLASLVLPSAGETYSQAGAIFLQTGNLGIAVFNFVKGMMTKMPSPVSIKNFGALMVDNKSSLNRSLHTTIMNTYLQESKGPRTPAKEILEFYFLGLFGSVWSPTSWRDDTKPNQLNNGIKLRHLENALYETMSARYLNNIKTIFHNLIITIGGFHLLLKRRSDVSAKTLKDLRSNELDYLNFAFKYIAHILNDIVKESWSENPEVSEILGMVRIINCWIKANPMVLQYSQSNLEFVNALAYLINDIVKKKPSPSFSITEHIPKRTYWFEEDLMVKGLSFVNFQLSDFDDYEKILEMDHSLDRLIGNPPLCDKLSASSEMLLRLQAVVNISSQLLQNNNCGVEWSDNKSRYIFNKKIGFKETVKNSMKTSKQSNEKAKLQRKNKPSTTNGSISMADLERQMRSSSLDSFSPTMGYSGSSVPMAPDTFNVKPSGTITGNKVNVELLKIELSGQNADGAITNISPGYSNAAISSSNSTDESSFDLNNILSSMQQKHAEKSFAKSMQGVNEQIPANDVCHQAQRPMQGGLYSSQQPSSMSSLNSAYQNASMPPSASMVSYPYPFLNQQGQGVFPPYNAQNLQWQSEAYSLKSMNFANPTWLGDQYQTSAPSSAYAQAQRQMFQQPMQQDVGKYMQFPFDAQSNTDSMRGNSRNNMF
On to B1, for which the binding result (with Upf1-TAP (S. cerevisiae) [1]; in test [2]; in test [3]; in the test with Upf1-TAP (S. cerevisiae) [4]) was “binds” each time.

B2: Nmd4 (protein, UniProt Q12129 1-218)
chain: MTQYNFIIDASAFEKGLGNIKRWCSDCTEAVTLNFYIPTFTLNELDFLQQRRKSFAARESLKFIDRLDDSKFANLKVFIEFPEVLDIILWSDVMEHNDSSGKINIAKLPKRLKNLLKSCIYKCYLEGNEGLHWFLISEDPQIREMAMQCNIPSCSIVDVDSILSKDMNDKSFRESEKFNNMMLKNGTKEESENGREIIRTNFNKTVYASRGTGELWSP
For the molecule B2, the binding entry with Upf1-TAP (S. cerevisiae) [1] is on record as “binds”; in test [2] it was “binds”; in test [3] it was “no binding”; with Upf1-TAP (S. cerevisiae) [4] it was “binds”.
